Mtb cholesterol medium: 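Growth of Mycobacterium tuberculosis over 4 days (cholesterol / DPPC medium with tyloxapol); the read-out is not stated. Compounds at 50 µM. Higher reads as more growth inhibition (inferred: compounds with an IC50 in retests scored well above the rest). Size under these conditions: about 69,000 compounds, about 370 of them at 50% or above in at least one test.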
Mtb glucose medium: 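Whole-cell growth test on Mycobacterium tuberculosis, read after 3 days in glucose-containing 7H9 medium; the read-out is not stated. Compounds at 50 µM. The record gives no direction; compounds that gave an IC50 in retests scored well above the rest, so higher reads as more growth inhibition. Of about 69,000 compounds tested this way, about 760 (1.1%) reached 50% or more in at least one test.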

Each number is a percent effect as filed.
How 0% and 100% were set is not recorded. Most values in the screen are low, and negative values occur.
This is an unselected part of the compounds tested.
Two or more numbers in one place are separate tests of the same structure; such repeats can differ widely.

Compound | Mtb cholesterol medium | Mtb glucose medium
Cc1cc(C)n(CCCC(=O)N2CCc3ncc(Cl)cc3C2)n1 | -30.04% | -25.29%
COc1ccc(-c2nc(C#N)c(N(C)C)o2)cc1OC | -23.95% | -1.941% & 0.229%
O=C(COC1CCCC1)Nc1ncn(CC(=O)N2CCCCCC2)n1 | 12.47% | 10.62%
CCS(=O)(=O)N1CCC(Nc2c(F)cc(C#N)cc2F)CC1 | -0.4948% | -2.943%
CCc1cnc(N2CCC3(CC(=O)N(Cc4csc(C)n4)C3)C2)nc1.O=C(O)C(F)(F)F (stereo not given) | 3.702% | 20.11%
CN1CC(c2ccccc2)CC12CCN(C(=O)c1cccnc1)CC2 (stereo not given) | -21.84% | -13.74%
COc1nc2c(cc1C(=O)NC(C)Cc1cc(C)n[nH]1)CCC2 (stereo not given) | -6.676% | 33.07%
Cc1cc(NC(=O)CN2CCCC2c2noc(C)n2)n(C(C)(C)C)n1 (stereo not given) | -13.08% | -2.634%
COCCCNC(=O)CN(C)C(=O)c1cc(C)sc1C | 0.3142% | -2.718%
CN(Cc1ccncc1)C1CC2(CCN(Cc3ccccn3)CC2)C1 | -0.3735% & 11.67% | -4.564%
CC(NCCN1CCN(C(=O)C2CCCC2)CC1)c1ccccn1 (stereo not given) | -3.075% | 1.564% & 8.428%
Cn1ncc2c(N3CCN(CCC(N)=O)CC3)nc(C3CCCC3)nc21 | 7.164% | 11.46% & 0.8576%
CCn1c(CN(C)Cc2cnc(C)s2)nc2c(F)cccc21 | 4.589% | 8.658%
O=C(O)C(F)(F)F.[H][C@@]12CCCO[C@]1([H])[C@@H](OCC(C)C)CN2S(=O)(=O)c1cn(C)cn1 | 7.086% | 2.472%
F[C@@H]1CN(CC2CC2)C[C@@H]1OCc1nc2ccccc2o1 | -15.94% | -15.32% & -14.82%
CN(C)c1ccc(C(=O)N2CCN(CC(C)(C)O)CC2)nn1 | 3.373% | 12%
CC(Cc1ccc(Cl)cc1)NC(=O)Nc1cnn(CC(N)=O)c1 (stereo not given) | 9.527% | -12.85%
O=C(O)C(F)(F)F.O=C(O)C(F)(F)F.[H][C@@]12CN(CC3CC3)CCC[C@]1(C(=O)N(C)C)CN(c1ccccn1)C2 | -16.14% | -8.796%
CCNC(=O)[C@@H]1C[C@@H](NC(=O)c2ccc(C)cc2O)CN1CCCSC | 18.99% | 24.21%
CS(=O)(=O)N1CCc2c(cccc2NC(=O)CC(F)(F)F)C1 | 2.708% | -4.941% & -10.24%
Cn1cc(C2SCC(=O)Nc3c2cnn3C(C)(C)C)cn1 (stereo not given) | -10.45% | 20.08%
COc1ccccc1Oc1ncccc1CNC(=O)[C@H](C)O | -4.419% | -5.381%
O=C(CN1C(=O)CCCc2sccc21)NC1CCc2nccn2C1 (stereo not given) | 7.902% | -7.987%
FC1(F)CCN(Cc2ccccn2)CC12CCN(c1cccnc1)C2.O=C(O)C(F)(F)F.O=C(O)C(F)(F)F.O=C(O)C(F)(F)F (stereo not given) | 10.34% | 9.822%
O=C(O)c1ccc(CN2CCCC(Cc3ccn[nH]3)C2)cc1 (stereo not given) | -1.278% & -21.22% | -9.721%
O=C(O)C(F)(F)F.[H][C@@]12CCN(CCc3ccccc3)C[C@]1([H])[C@@H](CNS(C)(=O)=O)OC2 | 57.57% | -31.74%
CC(=O)NCCNc1nccc(CCC(F)(F)F)n1 | 9.669% | 22.6% & 3.255%
Cc1cccc(S(=O)(=O)NC(=O)c2ccc3c(c2)nnn3C)c1 | -11.42% | -20.42%
COCc1cc(CNCc2c(C)n(CC(N)=O)c3ccccc23)n[nH]1 | 8.685% | -6.821% & -1.887%
Cc1ccc(N2CCCC(NCc3nnc(-c4ccco4)o3)C2)nn1 (stereo not given) | -4.135% | -20.96%
CCN(CC)C(=O)Cn1c(C)cc2nc(SC)n(CC(C)C)c(=O)c21 | -15.43% | -37.24%
Cc1nc(-c2ccccc2)sc1C(=O)N(C1CC1)C1CC(=O)NC1=O (stereo not given) | 28.58% | 32.33%
CC(C)C(=O)N1CCC12CCCN(C(=O)c1ccnnc1)C2 (stereo not given) | -8.657% | 22.08%
COc1ccc(Oc2ccc(C(F)(F)F)cn2)cc1CN1CCCC1 | 21.72% | 34.57%
O=C(O)C(F)(F)F.O=C(O)C(F)(F)F.[H][C@@]12COC[C@]1([H])[C@H](OCc1ccccn1)CN2Cc1nccs1 | -4.919% | -10.96%
O=C(C1CC(c2ccccc2)=NO1)N1CCc2ccccc21 (stereo not given) | 6.17% | 4.089%
Cc1ccc(-c2nnc(SCC(=O)O)n2-c2ccccc2)cc1 | -13.46% | 12.43%
Oc1nc(N2CCOCC2)nc2c1CCN(Cc1cccnc1)CC2 | -17.83% | -2.38%
CCN(CC)c1ccc(NS(=O)(=O)c2cncc(F)c2)cn1 | -30.24% | -40.19%
CCn1nc(C)c(NC(=O)c2cc(NC(=O)C(C)C)n(C)n2)c1C | -23.93% | 24.51%
COCC(=O)N(Cc1ccc2[nH]ccc2c1)C1CC1 | -6.37% | -1.903%
Cc1noc(C)c1CN(C)C(=O)NC1CCN(C2CC2)CC1 | 0.8615% | 4.268%
Cc1cc(C)n(CC(C)NC2CCN(Cc3cccc(O)c3)CC2)n1 (stereo not given) | -4.832% & 8.084% | 15.54%
CC(=O)Nc1ccc(CNCC(O)c2ccc(C)cc2)cc1 (stereo not given) | -3.778% & -11.9% | 3.424%
COc1c(C2CCCN2C(=O)c2cccc(C)n2)c(C)nn1C (stereo not given) | -3.176% | 16.81%
CC(=O)N1C[C@H](NS(=O)(=O)c2cccc(Cl)c2)[C@@H](C(C)C)C1 | 10.79% | 20.84% & -2.068%
Cc1nc(CN(C)C2CCN(CCCOc3ccccc3C)C2)no1 (stereo not given) | -13.87% | 6.649%
O=C(O)C(F)(F)F.O=C(c1ccccn1)N1CCC2(CCCN(c3nncs3)C2)C1 (stereo not given) | -19.3% | -16.49%
Cn1cnc2c1CCN(CC(=O)NC1CCCCNC1=O)C2 (stereo not given) | -7.748% | 1.896% & -25.97%
c1ccc(CCCN2CCN(CCn3cncn3)CC2)cc1 | -8.789% & -6.795% | -1.346%
[H][C@@]12CN(Cc3cccc(-c4ccccc4C)c3)C[C@]1(C(=O)O)CNC2=O | -19.02% | -31.48%
CC(=O)c1ccc(OCC(=O)NC(C)CCc2ccco2)cc1 (stereo not given) | 15.16% | -6.692%
CSC(C)C(=O)N1CCN(CCO)CC1 (stereo not given) | -17.31% | 5.287%
O=C(O)C(F)(F)F.O=C(O)C(F)(F)F.[H][C@]12CC(=O)N(Cc3cccc(C)n3)[C@@]1([H])CCN2Cc1nccs1 | -15.11% & 1.446% | 0.8469%
O=C(Cc1ccccn1)N1CCc2nc(-c3cnccn3)nc(O)c2C1 | -28% | -0.3648%
[H][C@@]12CCN(S(C)(=O)=O)C[C@]1(C(=O)NCC1CC1)CCO2 | 9.156% | -1.378%
CCn1c(CN2CCN(C(=O)C3CCC3)CC2)nc2c(F)cccc21 | -5.002% | -6.802%
CN1CCc2c(CNc3ncccn3)n[nH]c2C1.O=C(O)C(F)(F)F | -49.77% | -8.309%
COCCS(=O)(=O)Cc1nnnn1-c1ccccc1 | -10.51% | -17.25% & -1.338%
CN1CC(c2ccccc2)CC12CCN(C(=O)c1cncc(Cl)c1)CC2 (stereo not given) | -25.37% | -11.98%
CCc1cc(C(=O)N2CCCC(c3cc(=O)nc4n3CCC4)C2)no1 (stereo not given) | -15.4% & 7.546% | -22.4%
Cc1cc(C2CCCN2C(=O)NCc2ccccn2)on1 (stereo not given) | -14.28% | -29.09%
O=C(COCC1CCCCO1)N1CCN(Cc2ccccc2F)C(=O)C1 (stereo not given) | -6.093% | -7.977%
CCOc1ncccc1CNC(=O)CN1CCCCCC1=O | -18.95% | 1.606%
Cc1ccc(F)c2c1N(C(=O)c1cn(CC(=O)N(C)C)nn1)CCC2 | -1.58% | 11.28%

For reference, 6 entries once more:

* O=C(O)C(F)(F)F.[H][C@@]12CCN(CCc3ccccc3)C[C@]1([H])[C@@H](CNS(C)(=O)=O)OC2 | Mtb cholesterol medium: 57.57%; Mtb glucose medium: -31.74%
* COc1ccc(-c2nc(C#N)c(N(C)C)o2)cc1OC | Mtb cholesterol medium: -23.95%; Mtb glucose medium: -1.941% & 0.229%
* CN(Cc1ccncc1)C1CC2(CCN(Cc3ccccn3)CC2)C1 | Mtb cholesterol medium: -0.3735% & 11.67%; Mtb glucose medium: -4.564%
* CCNC(=O)[C@@H]1C[C@@H](NC(=O)c2ccc(C)cc2O)CN1CCCSC | Mtb cholesterol medium: 18.99%; Mtb glucose medium: 24.21%
* COc1ccccc1Oc1ncccc1CNC(=O)[C@H](C)O | Mtb cholesterol medium: -4.419%; Mtb glucose medium: -5.381%
* CCn1c(CN2CCN(C(=O)C3CCC3)CC2)nc2c(F)cccc21 | Mtb cholesterol medium: -5.002%; Mtb glucose medium: -6.802%

Source: ChEMBL document CHEMBL3988442, “University of Dundee, Small-Polar-MMV Screening Library” (2021).